These are yes or no findings as the source states them, for the method shown. Some results given as binding are weak or reduced against the parent protein; the word gives no strength.
T1: murine AA amyloid (AA fibrils, amyloid enhancing factor extract or tissue deposits) (mouse) (UniProt P05367)
T1 sequence (looked up): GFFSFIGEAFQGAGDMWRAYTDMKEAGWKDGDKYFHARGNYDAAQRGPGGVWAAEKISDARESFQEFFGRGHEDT

T2: human AA amyloid (renal AA amyloid extract or tissue deposits) (human) (UniProt P0DJI8)
T2 sequence (looked up): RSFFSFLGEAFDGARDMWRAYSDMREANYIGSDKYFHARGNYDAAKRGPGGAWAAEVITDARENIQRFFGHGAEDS


How the values were obtained:
[1] = molecular target: T1, murine AA amyloid (AA fibrils, amyloid enhancing factor extract or tissue deposits) (mouse); test: ELISA, serial dilution of hybridoma culture supernatant on murine AA AEF (murine-derived AA fibrils)
[2] = molecular target: ALλ amyloid deposits in a patient's thyroid gland composed of λ2 fragments (human); test: immunohistochemistry, 3 µg/mL mAb on thyroid ALλ amyloid sections
[3] = molecular target: T1, murine AA amyloid (AA fibrils, amyloid enhancing factor extract or tissue deposits) (mouse); test: told in words with the ELISA results
[4] = molecular target: T2, human AA amyloid (renal AA amyloid extract or tissue deposits) (human); test: told in words with the ELISA results
[5] = molecular target: T1, murine AA amyloid (AA fibrils, amyloid enhancing factor extract or tissue deposits) (mouse); test: immunohistochemistry, hybridoma supernatants on TRIAD mouse liver and spleen
[6] = molecular target: T1, murine AA amyloid (AA fibrils, amyloid enhancing factor extract or tissue deposits) (mouse); test: comparison told in words, method for murine AA fibrils not given here
[7] = molecular target: T1, murine AA amyloid (AA fibrils, amyloid enhancing factor extract or tissue deposits) (mouse); test: ELISA, hybridoma culture supernatant on murine AA (AEF); not corrected for mAb concentration
[8] = molecular target: T1, murine AA amyloid (AA fibrils, amyloid enhancing factor extract or tissue deposits) (mouse); test: ELISA, purified mAb titrated on plate-bound murine AA amyloid extract (AEF)
[9] = molecular target: T2, human AA amyloid (renal AA amyloid extract or tissue deposits) (human); test: immunohistochemistry on human AA-containing kidney, adrenal, ovary and liver
[10] = molecular target: T2, human AA amyloid (renal AA amyloid extract or tissue deposits) (human); test: ELISA, purified mAb titrated on plate-bound human renal AA amyloid extract
[11] = molecular target: T1, murine AA amyloid (AA fibrils, amyloid enhancing factor extract or tissue deposits) (mouse); test: ELISA, told in words
[12] = molecular target: T2, human AA amyloid (renal AA amyloid extract or tissue deposits) (human); test: ELISA, told in words
[13] = molecular target: T1, murine AA amyloid (AA fibrils, amyloid enhancing factor extract or tissue deposits) (mouse); test: SPECT imaging in TRIAD mice
[14] = molecular target: T1, murine AA amyloid (AA fibrils, amyloid enhancing factor extract or tissue deposits) (mouse); test: SPECT/CT imaging in mice with AA amyloidosis
[15] = molecular target: murine monoclonal antibody 7D8; test: BIAcore competition: peptide p41 in solution with mAb 7D8 (6.6 nM, legend); interaction watched: 7D8 with immobilized Vλ6 Wil fibrils
[16] = molecular target: murine monoclonal antibody 7D8; test: immunohistochemistry on human ovarian AA amyloid, peptide inhibition
[17] = molecular target: murine monoclonal antibody 7D8; test: immunohistochemistry, preincubation of 7D8 supernatant with peptide before staining murine AA amyloid
[18] = molecular target: murine monoclonal antibody 7D8; test: SPR competition: 20 µg/mL p41 left 7D8 binding to Vλ6 Wil fibrils identical to 7D8 alone

Binder	binding [1]	binding [2]	binding [3]	binding [4]	binding [5]	binding [6]	binding [7]	binding [8]	binding [9]	binding [10]	binding [11]	binding [12]	binding [13]	binding [14]	binding [15]	binding [16]	binding [17]	binding [18]
murine monoclonal antibody 2A4 (antibody, V domains shown) VH: EVQLVESGGRLVQPKGSLKLSCAASGFTFNTYAMYWIRQAPGKGLEWVARIRSKSNNYAIYYADSVKDRFTIFRDDSQSMLYLQMNNLKTEDTAMYYCVRPYSDSFAYWGQGTLVTVSA VL: DVVMTQTPLSLPVSLGDQASISCRSSQSLVHSTGNTYLHWYLQKPGQSPKLLIYKVSNRFSGVPDRFSGSGSGTYFTLKISRVEAEDLGVYFCSQSTHVPFTFGGGTKLEIK	binds	binds	binds	binds	binds	binds	binds	binds	binds	binds								
murine monoclonal antibody 7D8 (antibody, mouse IgG2b, V domains shown) VH: EVQLVESGGRLVQPKGSLKLSCAASGFTFNTYAMYWIRQAPGKGLEWVARIRSKSNNYAIYYADSVKDRFTIFRDDSQSMLYLQMNNLKTEDTAMYYCVRPYSDSFAYWGQGTLVTVSA VL: DVVMTQTPLSLPVSLGDQASISCRSSLSLVHSTGNTYLHWYLQKPGQSPKLLIYKVSNRFSGVPDRFSGSGSGTYFTLKISRVEAEDLGVYFCSQSTHVPFTFGGGTKLEIK	binds	binds	binds	binds	binds	binds	binds	binds	binds	binds	binds	binds	binds	binds				

Further lines, results first:

binding [1]	binding [2]	binding [3]	binding [4]	binding [5]	binding [6]	binding [7]	binding [8]	binding [9]	binding [10]	binding [11]	binding [12]	binding [13]	binding [14]	binding [15]	binding [16]	binding [17]	binding [18]	Binder
binds	binds	binds	binds	binds	binds	binds	binds	binds	binds									murine monoclonal antibody 8G9 (antibody, mouse IgG2b, V domains shown) VH: EVQLVESGGRLVQPKGSLKLSCAASGFTFNTYAMYWIRQAPGKGLEWVARIRSKSNNYAIYYADSVKDRFTIFRDDSQSMLYLQMNNLKTEDTAMYYCVRPYSDSFAYWGQGTLVTVSA VL: DVVMTQTPLSLPVSLGDQASISCRSSQSLVHSTGNTYLHWYLQKPGQSPKLLIYKVSNRFSGVPDRFSGSGSGTYFTLKISRVEAEDLGVYFCSQSTHVPFTFGGGTKLEIK
														no binding (tested: 20 µg/mL)	no binding	no binding (tested: 50 µg/mL)	no binding (tested: 20 µg/mL)	GHEDTIADQE [peptide 41, …]
